Measured values reported in paper PMC10434054.
Results are given in words; binding and its absence hold for the method and conditions named. In cells and extracts the contact can be indirect. A yes stands for co-enrichment or nearness to the bait. Other partners may have been found. Where a sequence is shown, tags or fusion partners need not be part of it.

The chains behind the UniProt entries cited, without tags or fusion partners. Residues count along the entry.
UniProt P35579: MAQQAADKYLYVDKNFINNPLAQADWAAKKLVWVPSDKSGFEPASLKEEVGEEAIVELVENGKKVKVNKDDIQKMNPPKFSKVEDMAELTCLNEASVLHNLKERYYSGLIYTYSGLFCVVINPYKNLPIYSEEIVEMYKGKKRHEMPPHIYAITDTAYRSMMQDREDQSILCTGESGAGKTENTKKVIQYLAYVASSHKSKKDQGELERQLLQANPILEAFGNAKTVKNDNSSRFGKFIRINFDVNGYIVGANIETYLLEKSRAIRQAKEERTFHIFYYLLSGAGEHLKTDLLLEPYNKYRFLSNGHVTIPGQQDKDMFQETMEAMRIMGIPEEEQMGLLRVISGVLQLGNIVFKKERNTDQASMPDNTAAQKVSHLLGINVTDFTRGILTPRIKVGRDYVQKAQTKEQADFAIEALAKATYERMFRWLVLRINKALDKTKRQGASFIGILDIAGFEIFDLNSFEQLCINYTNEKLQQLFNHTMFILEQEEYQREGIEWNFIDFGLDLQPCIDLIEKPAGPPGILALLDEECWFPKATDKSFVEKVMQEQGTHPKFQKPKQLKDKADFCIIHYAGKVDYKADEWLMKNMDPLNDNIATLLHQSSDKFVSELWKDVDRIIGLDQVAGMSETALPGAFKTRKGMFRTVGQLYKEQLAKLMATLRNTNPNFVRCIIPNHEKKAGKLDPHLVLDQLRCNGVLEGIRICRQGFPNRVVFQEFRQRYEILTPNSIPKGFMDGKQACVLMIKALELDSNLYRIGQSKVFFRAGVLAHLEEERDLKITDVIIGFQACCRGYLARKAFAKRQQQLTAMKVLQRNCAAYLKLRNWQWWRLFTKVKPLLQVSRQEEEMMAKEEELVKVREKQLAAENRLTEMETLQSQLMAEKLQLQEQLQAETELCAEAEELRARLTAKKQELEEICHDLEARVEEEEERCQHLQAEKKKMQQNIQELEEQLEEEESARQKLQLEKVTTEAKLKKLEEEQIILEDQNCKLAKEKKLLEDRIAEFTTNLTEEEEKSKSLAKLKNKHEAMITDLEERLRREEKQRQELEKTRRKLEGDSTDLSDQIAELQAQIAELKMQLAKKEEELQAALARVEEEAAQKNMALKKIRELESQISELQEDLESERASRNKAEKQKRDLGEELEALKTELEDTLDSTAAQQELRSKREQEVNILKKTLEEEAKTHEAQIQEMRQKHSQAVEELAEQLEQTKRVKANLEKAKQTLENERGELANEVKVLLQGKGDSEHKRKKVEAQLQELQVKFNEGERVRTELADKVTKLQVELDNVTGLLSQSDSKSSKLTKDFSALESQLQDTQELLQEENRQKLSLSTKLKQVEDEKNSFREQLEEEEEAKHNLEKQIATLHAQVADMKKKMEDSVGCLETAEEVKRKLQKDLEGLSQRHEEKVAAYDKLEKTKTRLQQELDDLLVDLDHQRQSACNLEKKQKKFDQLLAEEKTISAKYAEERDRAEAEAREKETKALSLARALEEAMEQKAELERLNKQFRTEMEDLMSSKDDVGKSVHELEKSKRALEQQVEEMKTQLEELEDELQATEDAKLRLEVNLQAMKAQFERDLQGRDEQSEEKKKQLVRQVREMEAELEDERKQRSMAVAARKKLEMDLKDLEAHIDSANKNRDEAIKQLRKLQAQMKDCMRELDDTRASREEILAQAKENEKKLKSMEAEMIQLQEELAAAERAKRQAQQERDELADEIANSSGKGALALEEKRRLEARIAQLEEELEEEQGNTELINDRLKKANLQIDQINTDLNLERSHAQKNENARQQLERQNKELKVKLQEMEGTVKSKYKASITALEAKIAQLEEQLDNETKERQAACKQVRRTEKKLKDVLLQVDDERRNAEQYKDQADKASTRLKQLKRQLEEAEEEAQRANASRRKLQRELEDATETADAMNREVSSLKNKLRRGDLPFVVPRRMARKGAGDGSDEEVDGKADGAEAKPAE
UniProt P30101, residues 25-505: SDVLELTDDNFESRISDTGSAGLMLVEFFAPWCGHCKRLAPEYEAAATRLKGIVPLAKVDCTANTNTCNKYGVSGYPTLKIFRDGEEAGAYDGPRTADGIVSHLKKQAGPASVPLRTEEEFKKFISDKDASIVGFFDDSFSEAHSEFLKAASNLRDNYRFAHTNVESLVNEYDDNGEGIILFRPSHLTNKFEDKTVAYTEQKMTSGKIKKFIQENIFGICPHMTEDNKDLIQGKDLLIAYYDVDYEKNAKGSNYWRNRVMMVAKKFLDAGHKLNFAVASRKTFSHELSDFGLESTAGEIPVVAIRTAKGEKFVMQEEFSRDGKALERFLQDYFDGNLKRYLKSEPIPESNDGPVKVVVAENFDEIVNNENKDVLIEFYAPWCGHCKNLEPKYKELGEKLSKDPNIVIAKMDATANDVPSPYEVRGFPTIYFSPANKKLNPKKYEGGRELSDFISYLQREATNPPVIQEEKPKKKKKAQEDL

Molecular target: T1, wild-type FAM46C, C-terminally Myc-DDK tagged (human) (UniProt Q5VWP2)
T1 sequence: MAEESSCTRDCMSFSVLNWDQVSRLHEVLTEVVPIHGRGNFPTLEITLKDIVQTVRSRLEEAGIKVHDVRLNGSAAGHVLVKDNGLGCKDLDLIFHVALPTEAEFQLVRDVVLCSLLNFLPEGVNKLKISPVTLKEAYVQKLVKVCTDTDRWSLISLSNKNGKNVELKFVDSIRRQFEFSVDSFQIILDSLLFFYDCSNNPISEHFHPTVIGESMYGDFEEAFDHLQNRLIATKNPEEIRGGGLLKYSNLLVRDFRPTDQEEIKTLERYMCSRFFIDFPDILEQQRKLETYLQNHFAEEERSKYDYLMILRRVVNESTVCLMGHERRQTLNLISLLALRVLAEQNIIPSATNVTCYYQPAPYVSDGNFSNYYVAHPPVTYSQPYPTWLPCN
Assay: affinity purification with mass spectrometry; anti-FLAG antibodies on protein G-Dynabeads, 3 mg total HEK-293T lysate, 4 h at 4°C, lysis buffer 50 mM Tris-HCl pH 7.4, 150 mM NaCl, 1% Triton, 1 mM MgCl2; cells with or without lentiviral envelope and packaging plasmids; gel bands, LC-MS/MS, LFQ

Row | Substance | binding
1 | Myosin-9 (MYH9) (from UniProt P35579 1-1960) | binds
2 | PDIA3 (from UniProt P30101 25-505) | binds
